Experimental findings from publication PMC10131372 are described below.

In assay [1] the target is T1, SCL/TAL1 interrupting locus (STIL) (human (endogenous in EJ)) (UniProt Q15468).
T1 sequence: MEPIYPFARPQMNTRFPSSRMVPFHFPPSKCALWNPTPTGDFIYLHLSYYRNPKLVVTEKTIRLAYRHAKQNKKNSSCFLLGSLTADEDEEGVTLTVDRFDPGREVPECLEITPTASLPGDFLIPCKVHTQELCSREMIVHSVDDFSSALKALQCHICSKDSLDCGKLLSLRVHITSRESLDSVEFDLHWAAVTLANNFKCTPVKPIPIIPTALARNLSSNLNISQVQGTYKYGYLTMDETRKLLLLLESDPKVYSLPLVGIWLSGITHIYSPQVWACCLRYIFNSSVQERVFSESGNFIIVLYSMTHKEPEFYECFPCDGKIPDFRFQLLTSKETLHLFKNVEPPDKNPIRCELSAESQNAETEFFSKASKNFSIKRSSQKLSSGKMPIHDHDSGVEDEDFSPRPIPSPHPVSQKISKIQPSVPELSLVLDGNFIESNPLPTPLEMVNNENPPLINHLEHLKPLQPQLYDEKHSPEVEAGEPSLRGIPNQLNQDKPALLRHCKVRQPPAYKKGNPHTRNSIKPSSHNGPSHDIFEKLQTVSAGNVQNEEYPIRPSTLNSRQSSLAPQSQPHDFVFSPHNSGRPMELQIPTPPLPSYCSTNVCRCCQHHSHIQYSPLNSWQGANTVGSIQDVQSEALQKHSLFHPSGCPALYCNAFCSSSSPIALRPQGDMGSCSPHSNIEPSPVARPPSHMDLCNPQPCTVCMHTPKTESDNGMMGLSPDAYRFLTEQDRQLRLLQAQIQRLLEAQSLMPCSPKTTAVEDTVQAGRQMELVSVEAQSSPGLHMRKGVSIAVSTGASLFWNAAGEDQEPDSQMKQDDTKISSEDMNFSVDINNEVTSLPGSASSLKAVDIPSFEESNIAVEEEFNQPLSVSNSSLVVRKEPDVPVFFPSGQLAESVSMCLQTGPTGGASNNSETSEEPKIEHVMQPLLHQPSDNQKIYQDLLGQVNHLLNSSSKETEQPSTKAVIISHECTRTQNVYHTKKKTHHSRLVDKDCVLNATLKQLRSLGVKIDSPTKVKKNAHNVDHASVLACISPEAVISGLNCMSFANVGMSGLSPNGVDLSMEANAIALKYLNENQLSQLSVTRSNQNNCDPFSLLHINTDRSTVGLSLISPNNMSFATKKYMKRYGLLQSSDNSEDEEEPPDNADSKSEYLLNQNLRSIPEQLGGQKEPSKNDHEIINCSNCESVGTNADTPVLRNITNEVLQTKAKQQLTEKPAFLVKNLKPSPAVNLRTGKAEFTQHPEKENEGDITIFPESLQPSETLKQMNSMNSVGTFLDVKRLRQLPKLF
Description: co-IP; EJ cell lysate (IP Lysis/Wash Buffer with 1% PMSF); anti-STIL, anti-AURKA or mouse IgG antibody immobilised on AminoLink Plus coupling resin (Pierce co-IP kit); 4 °C overnight; Western blot. In general terms: A western blot detects proteins with antibodies after separation by electrophoresis.

The target in assay [2] is T2, Aurora kinase A (AURKA) (human (endogenous in EJ)) (UniProt O14965).
T2 sequence: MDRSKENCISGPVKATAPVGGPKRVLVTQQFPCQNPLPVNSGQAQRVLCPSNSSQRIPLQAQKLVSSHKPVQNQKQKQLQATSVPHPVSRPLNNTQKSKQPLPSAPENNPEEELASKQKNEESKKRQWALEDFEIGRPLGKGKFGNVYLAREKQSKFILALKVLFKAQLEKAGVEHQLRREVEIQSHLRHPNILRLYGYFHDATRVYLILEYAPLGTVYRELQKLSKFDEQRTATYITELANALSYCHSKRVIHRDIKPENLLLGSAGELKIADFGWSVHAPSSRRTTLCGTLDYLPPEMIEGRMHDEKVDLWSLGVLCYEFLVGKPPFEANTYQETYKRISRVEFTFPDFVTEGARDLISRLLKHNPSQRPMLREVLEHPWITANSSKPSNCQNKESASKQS
Described as above.

No constants are given. Whether binding was seen depends on the method and setting. Binding seen in cells or lysates may run through a third protein. Some results given as binding are weak or reduced against the parent protein; the word gives no strength.

B1: Aurora kinase A (AURKA) (protein, UniProt O14965 1-403)
chain: T2 sequence
B1: the binding entry in assay [1] is recorded as “binds”.

B2: SCL/TAL1 interrupting locus (STIL) (protein, UniProt Q15468 1-1287)
chain: T1 sequence
As for B2, the binding result in assay [2] is “binds”.
